Values quoted from earlier work as cited in publication PMC9770967, “Native holdup (nHU) to measure binding affinities from cell extracts” (Science Advances, 2022).

B1: WASH2: component of the WASH complex (protein)
chain: MTPVRMQHSLAGQTYAVPLIQPDLRREEAVQQMADALQYLQKVSGDIFSRISQQVEQSRSQVQAIGEKVSLAQAKIEKIKGSKKAIKVFSSAKYPAPERLQEYGSIFTGAQDPGLQRRPRHRIQSKHRPLDERALQEKLKDFPVCVSTKPEPEDDAEEGLGGLPSNISSVSSLLLFNTTENLYKKYVFLDPLAGAVTKTHVMLGAETEEKLFDAPLSISKREQLEQQVPENYFYVPDLGQVPEIDVPSYLPDLPGIANDLMYIADLGPGIAPSAPGTIPELPTFHTEVAEPLKVDLQDGVLTPPPPPPPPPPAPEVLASAPPLPPSTAAPVGQGARQDDSSSSASPSVQGAPREVVDPSGGRATLLESIRQAGGIGKAKLRSMKERKLEKKKQKEQEQVRATSQGGHLMSDLFNKLVMRRKGISGKGPGAGEGPGGAFARVSDSIPPLPPPQQPQAEEDEDDWES
B2: SNX2: component of the SNX-BAR complex (protein, UniProt O60749 1-519, looked up)
Sorting nexin-2: MAAEREPPPLGDGKPTDFEDLEDGEDLFTSTVSTLESSPSSPEPASLPAEDISANSNGPKPTEVVLDDDREDLFAEATEEVSLDSPEREPILSSEPSPAVTPVTPTTLIAPRIESKSMSAPVIFDRSREEIEEEANGDIFDIEIGVSDPEKVGDGMNAYMAYRVTTKTSLSMFSKSEFSVKRRFSDFLGLHSKLASKYLHVGYIVPPAPEKSIVGMTKVKVGKEDSSSTEFVEKRRAALERYLQRTVKHPTLLQDPDLRQFLESSELPRAVNTQALSGAGILRMVNKAADAVNKMTIKMNESDAWFEEKQQQFENLDQQLRKLHVSVEALVCHRKELSANTAAFAKSAAMLGNSEDHTALSRALSQLAEVEEKIDQLHQEQAFADFYMFSELLSDYIRLIAAVKGVFDHRMKCWQKWEDAQITLLKKREAEAKMMVANKPDKIQQAKNEIREWEAKVQQGERDFEQISKTIRKEVGRFEKERVKDFKTVIIKYLESLVQTQQQLIKYWEAFLPEAKAIA
B3: SNX5: component of the SNX-BAR complex (protein, UniProt Q9Y5X3 2-404, looked up)
Sorting nexin-5: AAVPELLQQQEEDRSKLRSVSVDLNVDPSLQIDIPDALSERDKVKFTVHTKTTLPTFQSPEFSVTRQHEDFVWLHDTLIETTDYAGLIIPPAPTKPDFDGPREKMQKLGEGEGSMTKEEFAKMKQELEAEYLAVFKKTVSSHEVFLQRLSSHPVLSKDRNFHVFLEYDQDLSVRRKNTKEMFGGFFKSVVKSADEVLFTGVKEVDDFFEQEKNFLINYYNRIKDSCVKADKMTRSHKNVADDYIHTAACLHSLALEEPTVIKKYLLKVAELFEKLRKVEGRVSSDEDLKLTELLRYYMLNIEAAKDLLYRRTKALIDYENSNKALDKARLKSKDVKLAEAHQQECCQKFEQLSESAKEELINFKRKRVAAFRKNLIEMSELEIKHARNNVSLLQSCIDLFKNN
B4: SNX6: component of the SNX-BAR complex (protein, UniProt Q9UNH7 1-406, looked up)
Sorting nexin-6: MMEGLDDGPDFLSEEDRGLKAINVDLQSDAALQVDISDALSERDKVKFTVHTKSSLPNFKQNEFSVVRQHEEFIWLHDSFVENEDYAGYIIPPAPPRPDFDASREKLQKLGEGEGSMTKEEFTKMKQELEAEYLAIFKKTVAMHEVFLCRVAAHPILRRDLNFHVFLEYNQDLSVRGKNKKEKLEDFFKNMVKSADGVIVSGVKDVDDFFEHERTFLLEYHNRVKDASAKSDRMTRSHKSAADDYNRIGSSLYALGTQDSTDICKFFLKVSELFDKTRKIEARVSADEDLKLSDLLKYYLRESQAAKDLLYRRSRSLVDYENANKALDKARAKNKDVLQAETSQQLCCQKFEKISESAKQELIDFKTRRVAAFRKNLVELAELELKHAKGNLQLLQNCLAVLNGDT
B5: Strumpellin: component of the WASH complex (protein, UniProt Q12768 1-1159, looked up)
WASH complex subunit 5: MLDFLAENNLCGQAILRIVSCGNAIIAELLRLSEFIPAVFRLKDRADQQKYGDIIFDFSYFKGPELWESKLDAKPELQDLDEEFRENNIEIVTRFYLAFQSVHKYIVDLNRYLDDLNEGVYIQQTLETVLLNEDGKQLLCEALYLYGVMLLVIDQKIEGEVRERMLVSYYRYSAARSSADSNMDDICKLLRSTGYSSQPGAKRPSNYPESYFQRVPINESFISMVIGRLRSDDIYNQVSAYPLPEHRSTALANQAAMLYVILYFEPSILHTHQAKMREIVDKYFPDNWVISIYMGITVNLVDAWEPYKAAKTALNNTLDLSNVREQASRYATVSERVHAQVQQFLKEGYLREEMVLDNIPKLLNCLRDCNVAIRWLMLHTADSACDPNNKRLRQIKDQILTDSRYNPRILFQLLLDTAQFEFILKEMFKQMLSEKQTKWEHYKKEGSERMTELADVFSGVKPLTRVEKNENLQAWFREISKQILSLNYDDSTAAGRKTVQLIQALEEVQEFHQLESNLQVCQFLADTRKFLHQMIRTINIKEEVLITMQIVGDLSFAWQLIDSFTSIMQESIRVNPSMVTKLRATFLKLASALDLPLLRINQANSPDLLSVSQYYSGELVSYVRKVLQIIPESMFTSLLKIIKLQTHDIIEVPTRLDKDKLRDYAQLGPRYEVAKLTHAISIFTEGILMMKTTLVGIIKVDPKQLLEDGIRKELVKRVAFALHRGLIFNPRAKPSELMPKLKELGATMDGFHRSFEYIQDYVNIYGLKIWQEEVSRIINYNVEQECNNFLRTKIQDWQSMYQSTHIPIPKFTPVDESVTFIGRLCREILRITDPKMTCHIDQLNTWYDMKTHQEVTSSRLFSEIQTTLGTFGLNGLDRLLCFMIVKELQNFLSMFQKIILRDRTVQDTLKTLMNAVSPLKSIVANSNKIYFSAIAKTQKIWTAYLEAIMKVGQMQILRQQIANELNYSCRFDSKHLAAALENLNKALLADIEAHYQDPSLPYPKEDNTLLYEITAYLEAAGIHNPLNKIYITTKRLPYFPIVNFLFLIAQLPKLQYNKNLGMVCRKPTDPVDWPPLVLGLLTLLKQFHSRYTEQFLALIGQFICSTVEQCTSQKIPEIPADVVGALLFLEDYVRYTKLPRRVAEAHVPNFIFDEFRTVL

Tested on: HEK293T cells
Conditions: estimated total protein concentration; cited from earlier work

Point of comparison: B4, “[Protein] (nM) in HEK293T” value 592 nM. Against it:
- B1 — 30-fold lower, 20 nM
- B2 — 1.7-fold higher, 984 nM
- B3 — within 1.5-fold, 629 nM
- B5 — 6.8-fold lower, 87 nM
